Data as given in PubChem BioAssay AID743454 (Peter MacCallum Cancer Centre, 2014).
Here is an unselected part of about 18,000 deposited reagents. 450 of them (2.5%) were called active. 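Single biological run; no consistent viability z cut-off exists, so the class columns, not z-scores, define the calls.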 Reagent sequences are not shown.

Purpose: 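Knock-downs lowering viability or raising caspase 3/7 activity in vorinostat-treated resistant cells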 (primary screen)
System: human HCT116-VR colon cancer cells, selected for vorinostat resistance
Reagent: siRNA pool against human genes, 40 nM siRNA pool
Timing: vorinostat for 24 h, read-out about 72 h after transfection
Conditions: vorinostat at 2.5 µM final
Measurement: 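Cell viability by CellTiter-Fluor and caspase 3/7 activity by luminescence, each scaled to mock wells per plate, duplicates averaged, then robust z-scored over all plates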
Direction: viability robust z-score: higher = more viable cells than screen typical; caspase robust z-score: higher = more caspase 3/7 activity than screen typical
Call rule: 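Hits are knock-downs in viability class RV1/RV2 or caspase class CA1/CA2, excluding ones that killed cells in the no-drug cell-count arm; hits then retested with single siRNAs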

| Target gene | viability hit class | caspase hit class | viability robust z-score | caspase robust z-score | Call |
| --- | --- | --- | --- | --- | --- |
| JPH2 | no change | no change | -0.18 | -0.86 | inactive |
| IFNL3 | no change | no change | 0.81 | -0.17 | inactive |
| PANK1 | no change | no change | -0.98 | -0.62 | inactive |
| PWWP3B | no change | no change | 0.92 | -1.12 | inactive |
| RRAGA | no change | no change | -1.8 | 0.44 | inactive |
| TM2D1 | no change | no change | 1.67 | -0.16 | inactive |
| DSG2 | no change | no change | -0.25 | -0.4 | inactive |
| ATP6V1C2 | no change | no change | -0.02 | -0.36 | inactive |
| CENPX | no change | no change | -0.66 | 0.18 | inactive |
| CST9 | no change | no change | 1.23 | 0.04 | inactive |
| CYLC1 | no change | no change | -1.08 | -1.11 | inactive |
| NT5DC2 | no change | no change | 1.82 | 1.6 | inactive |
| CALD1 | no change | no change | -0.32 | -0.23 | inactive |
| ZXDA | no change | no change | 0.44 | 0.91 | inactive |
| ZNF669 | no change | no change | -0.45 | 1.21 | inactive |
| SH3RF1 | no change | no change | -0.46 | -0.68 | inactive |
| S100A10 | no change | no change | -0.77 | -1.1 | inactive |
| RUMY4 | no change | no change | 0.01 | -0.77 | inactive |
| ZP3 | no change | no change | 1.08 | 0.36 | inactive |
| SLC22A17 | no change | no change | 0.3 | -0.05 | inactive |
| BPIFA3 | no change | no change | 0.21 | -0.26 | inactive |
| DAB1 | no change | no change | 0 | -0.14 | inactive |
| LCP2 | no change | no change | -0.2 | -0.7 | inactive |
| NEU1 | no change | no change | -0.2 | 3.33 | inactive |
| CEP19 | no change | no change | 0.3 | -0.16 | inactive |
| TCF3 | no change | no change | -1.31 | 2.38 | inactive |
| LPCAT4 | no change | no change | -0.07 | -0.2 | inactive |
| CD99 | no change | no change | -0.49 | 0.14 | inactive |
| FOXE1 | no change | no change | 0.87 | 0.95 | inactive |
| GNL1 | no change | no change | 0.36 | 1.48 | inactive |
| ATP1B2 | no change | no change | -0.62 | 1.21 | inactive |

Not a retest: entries from further up.
| Target gene | viability hit class | caspase hit class | viability robust z-score | caspase robust z-score | Call |
| --- | --- | --- | --- | --- | --- |
| CENPX | no change | no change | -0.66 | 0.18 | inactive |
| CST9 | no change | no change | 1.23 | 0.04 | inactive |
| CYLC1 | no change | no change | -1.08 | -1.11 | inactive |

Further records:
| Target gene | viability hit class | caspase hit class | viability robust z-score | caspase robust z-score | Call |
| --- | --- | --- | --- | --- | --- |
| MOCS3 | no change | no change | -1.17 | 0.32 | inactive |
| PPARA | no change | no change | 0.44 | -0.66 | inactive |
| ASAP2 | no change | no change | -0.38 | 1.4 | inactive |
| DDX60 | no change | no change | 1.05 | -0.46 | inactive |
| SPAG1 | RV2 (reduced viability) | no change | -3.25 | -0.08 | active |
| INCA1 | no change | no change | -0.82 | -0.42 | inactive |
| LPIN2 | no change | no change | -0.67 | -1 | inactive |
| USP4 | no change | no change | 1.62 | -0.36 | inactive |
| ANO4 | no change | no change | 0.18 | -0.34 | inactive |
| FHIP2A | no change | no change | 1.36 | -0.8 | inactive |
| METTL14 | no change | no change | 0.76 | 0.08 | inactive |
| DGKK | no change | no change | 1.19 | -0.46 | inactive |
| NPIPB7 | no change | no change | -0.03 | -0.74 | inactive |
| FANCE | no change | no change | -1.62 | 2.22 | inactive |
| OLR1 | no change | no change | -0.58 | 1.82 | inactive |
| CHL1 | no change | no change | -0.05 | -0.08 | inactive |
| FAM133B | no change | no change | 0.76 | -0.26 | inactive |
| CEP104 | no change | no change | 0.44 | -0.66 | inactive |
| KAZALD1 | no change | no change | -0.64 | -0.39 | inactive |
| ZMYM3 | no change | no change | 2.28 | -0.27 | inactive |
| SAMD8 | RV2 (reduced viability) | no change | -3.26 | 2.22 | active |
| SLCO2B1 | no change | no change | 1.42 | 1.34 | inactive |
| MTCL1 | no change | no change | 1.26 | 0.65 | inactive |
| CAPN1 | no change | no change | 0.97 | -0.5 | inactive |
| PAXIP1 | no change | no change | 0.92 | -0.66 | inactive |
| MTFR1 | no change | no change | -0.8 | -0.08 | inactive |
